Data source: PubChem BioAssay AID1259405 (NCATS, 2018)

- Screen: 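Silenced genes that increase secreted GFP made by CHO cells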 (primary screen)
- System: Chinese hamster CHO-K1 ovary cells with stable secreted eGFP expression
- Reagent: single siRNA against mouse genes, 0.8 pmol siRNA per well (2 µl of 400 nM stock)
- Time to read-out: 3 days
- Measured: 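Per-well intracellular GFP measured by laser scanning cytometry, plus viability from ATP luminescence, each relative to plate median of non-targeting control wells, in %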
- Direction: GFP, % of control: higher = more GFP per well, higher productivity; viability (ATP), % of control: higher = more viable cells (more ATP)
- Rule for the call: 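a knock-down is called active if GFP reaches 120% or more of non-targeting control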
In all, the deposit lists about 50,000 reagents; this is a random part of them. About 4,000 of them (8%) were called active. 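Mouse siRNA library applied to hamster cells; one well for each siRNA.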 Reagents against one gene are numbered here.

no.	gene symbol	reagent no.	GFP, % of control	viability (ATP), % of control	Call
1	Trp53inp2	1	69.8	67.6	inactive
2	Trp53inp2	2	85	110	inactive
3	Trp53inp2	3	120	124	inactive
4	Dhx15	1	75.6	76.3	inactive
5	Dhx15	2	22.6	15.5	inactive
6	Dhx15	3	74.5	77.4	inactive
7	Rpl24	1	124	85.8	active
8	Rpl24	2	35.5	24.1	inactive
9	Rpl24	3	37.2	24.9	inactive
10	Zfp870	1	58.4	46.7	inactive
11	Zfp870	2	62.7	63.2	inactive
12	Zfp870	3	74.4	108	inactive
13	Gbp8	1	111	59.2	inactive
14	Gbp8	2	104	73.4	inactive
15	Gbp8	3	82.9	76.5	inactive
16	Snhg16	1	42.8	47.7	inactive
17	Snhg16	2	52.6	101	inactive
18	Snhg16	3	65.4	86.2	inactive
19	Mtmr11	1	95.1	37	inactive
20	Mtmr11	2	96.5	119	inactive
21	Mtmr11	3	82.2	94.2	inactive
22	Gm4792	1	73.9	75.3	inactive
23	Gm4792	2	195	58.2	active
24	Gm4792	3	71	71.8	inactive
25	Tuba3a	1	65.8	57.4	inactive
26	Tuba3a	2	65.7	105	inactive
27	Tuba3a	3	62.9	58.1	inactive
28	Stac2	1	84.7	84.3	inactive
29	Stac2	2	62.4	83.8	inactive
30	Stac2	3	36.5	32	inactive
31	Prlhr	1	97.9	74.6	inactive
32	Prlhr	2	73.3	55.9	inactive
33	Prlhr	3	55.4	47.9	inactive
34	Irgc	1	89.3	76.1	inactive
35	Irgc	2	78.4	58.4	inactive
36	Irgc	3	61	52.8	inactive
37	Rgs12	1	52.9	49	inactive
38	Rgs12	2	75.4	83.4	inactive
39	Rgs12	3	81.2	75.3	inactive
40	Dazap1	1	69.3	98.7	inactive
41	Dazap1	2	73.9	88.9	inactive
42	Dazap1	3	92.2	97	inactive
43	Hnrnpk	1	85.8	60.8	inactive
44	Hnrnpk	2	83	50.1	inactive
45	Hnrnpk	3	79	77	inactive
46	Cpq	1	65.9	89.9	inactive
47	Cpq	2	104	87.6	inactive
48	Cpq	3	67.5	63.7	inactive
49	Slc16a2	1	95.5	95	inactive
50	Slc16a2	2	71.1	42.4	inactive
51	Slc16a2	3	72.3	71.1	inactive
52	Rplp2	1	52.6	41.9	inactive
53	Rplp2	2	71.7	74.9	inactive
54	Rplp2	3	35	29.9	inactive
55	Bet1l	1	51.7	44.8	inactive
56	Bet1l	2	90.7	82	inactive
57	Bet1l	3	67.3	71.1	inactive
58	Prr9	1	115	68.6	inactive
59	Prr9	2	95.1	120	inactive
60	Prr9	3	69.7	84.1	inactive
61	Tmem132e	1	67	75.4	inactive
62	Tmem132e	2	60.9	65.3	inactive
63	Tmem132e	3	91.4	39.2	inactive
64	Tarbp2	1	97.8	45.1	inactive
65	Tarbp2	2	78.2	63.5	inactive
66	Tarbp2	3	60.9	65.6	inactive
67	Or10d3	1	70.9	68.1	inactive
68	Or10d3	2	63.6	74.7	inactive
69	Or10d3	3	53.9	55.1	inactive
70	Adamtsl5	1	36.5	58.7	inactive
71	Adamtsl5	2	75.7	119	inactive
72	Adamtsl5	3	98.5	73.3	inactive
73	Cnga2	1	137	117	active
74	Cnga2	2	121	105	active
75	Cnga2	3	52.5	58.8	inactive
76	Nudt13	1	48.1	59.1	inactive
77	Nudt13	2	51.7	90.8	inactive
78	Nudt13	3	96	44	inactive
79	Il2rb	1	102	102	inactive
80	Il2rb	2	87.5	77	inactive
81	Il2rb	3	101	66.6	inactive
82	Fam76a	1	114	110	inactive
83	Fam76a	2	69.5	58.7	inactive
84	Fam76a	3	165	155	active

A stretch from the list above:
no.	gene symbol	reagent no.	GFP, % of control	viability (ATP), % of control	Call
15	Gbp8	3	82.9	76.5	inactive
16	Snhg16	1	42.8	47.7	inactive
17	Snhg16	2	52.6	101	inactive
18	Snhg16	3	65.4	86.2	inactive
19	Mtmr11	1	95.1	37	inactive
20	Mtmr11	2	96.5	119	inactive
21	Mtmr11	3	82.2	94.2	inactive
22	Gm4792	1	73.9	75.3	inactive
